The other results are listed elsewhere or left out. Shown are side measurements of this screen, not its main read-out; they come without a call. Compounds called inactive in the main read-out are mostly missing here. Words in brackets tell the shape of the fitted curve; partial curves, single points and poor fits give uncertain potencies.
Assay: qHTS Assay for Modulators of Lamin A Splicing
Settings: HeLa LMNA splicing GFP/RFP minigene ratio, 48 h
In short: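 S3 HeLa stable clones carrying a lamin A-EGFP splicing minigene plus DsRed2 were seeded at 600 cells/well in Opti-MEM with 2% FBS, pin-dosed and incubated 48 h at 37°C. Acumen cytometry (488 nm) gave the GFP/RFP total-intensity ratio.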

[1] = measured here: GFP splicing reporter channel
[2] = measured here: RFP viability control channel

| SMILES | AC50 [1] | AC50 [2] |
| --- | --- | --- |
| CCCCc1n[nH]c2c1/C(=N/O)CC(c1ccccc1)C2 (stereo unspecified) | 11.2 µM [falling, partial curve] | 35.5 µM [falling, single point] |
| Cc1ccc2nsnc2c1NC(=O)COc1ccccc1F | 0.0112 µM [rising, full curve, poor fit] | – |
| Cc1nc(NC(=O)c2ccccc2)sc1Cc1ccc2c(c1)OCO2 | 28.2 µM [rising, single point] | 35.5 µM [rising, single point] |
| Cc1cccc(N2CCN(c3ncnc4c3nc3n4CCCCC3)CC2)c1C | – | 35.5 µM [rising, single point] |
| CC(=O)c1cn(CC(=O)Nc2ccccc2)c2ccccc12 | 3.16 µM [rising, single point] | 6.31 µM [rising, single point] |
| Cc1csc(-c2coc3cc(O)cc(C)c3c2=O)n1 | 31.6 µM [rising, single point] | 20 µM [rising, single point] |
| O=C(COc1ccccc1)N(Cc1cc2ccccc2[nH]c1=O)CC1CCCO1 (stereo unspecified) | 0.00501 µM [rising, full curve, poor fit] | – |
| CCCCC(=O)Nc1ccc(C(=O)OCc2cc(=O)n3nc(C4CC4)sc3n2)cc1 | 0.355 µM [falling, full curve] | – |
| O=C(C[n+]1cc(-c2ccc(F)cc2)n2c1CCC2)Nc1nc(-c2ccc(F)cc2)cs1 | 35.5 µM [rising, single point] | 14.1 µM [rising, partial curve, poor fit] |
| COC1=C(Nc2ccc(C)cc2)C(=O)c2ccccc2C1=O | 22.4 µM [rising, single point] | 31.6 µM [rising, single point] |
| Cc1ccc(-c2nc3sc(C#N)c(N)n3c(=O)c2C#N)cc1 | – | 4.47 µM [falling, full curve, poor fit] |
| C=CCN1CCc2nc(N)sc2CC1 | – | 35.5 µM [rising, single point] |
| Cc1c(CNC(=O)c2nn3c(c2Cl)NC(c2ccccc2)CC3C(F)(F)F)cnn1C (stereo unspecified) | – | 17.8 µM [rising, single point] |
| COCCCNC(=S)N(Cc1ccccc1)Cc1ccc(F)cc1 | 17.8 µM [falling, partial curve, poor fit] | – |
| CCN(CC)c1ccc(C(=O)NCc2ccc3c(c2)CCN3C(C)=O)cc1 | – | 2.51 µM [falling, partial curve, poor fit] |
| CCNc1nc(NCC)n2c(SCC(=O)Nc3ccccc3)nnc2n1 | 2.24 µM [falling, full curve, poor fit] | – |
| O=C(Nc1ccc(O)cc1)c1cc2n(n1)C(C(F)(F)F)CC(c1ccco1)N2 (stereo unspecified) | – | 17.8 µM [rising, single point] |
| COc1ccc(CC(=O)Nc2cccc(-c3nnc(-c4ccccc4)o3)c2)cc1OC | 35.5 µM [falling, single point] | 2.82 µM [rising, single point] |
| Cc1ccc2nc(N/C(N)=N/S(=O)(=O)c3ccc([N+](=O)[O-])cc3)nc(C)c2c1 | – | 0.631 µM [rising, partial curve] |
| O=C(Cc1ccc(S(=O)(=O)N2CCCCC2)s1)Nc1ccc(F)cc1F | – | 14.1 µM [rising, single point] |
| Cc1nc2ccccc2n1CCc1nc2c3ccccc3nc(SCC(=O)Nc3ccc(C(C)C)cc3)n2n1 | – | 20 µM [falling, partial curve, poor fit] |
| CCCN(CCC)S(=O)(=O)c1ccc(C(=O)Nc2nnc(-c3cccc(OC)c3)o2)cc1 | 10 µM [rising, partial curve, poor fit] | 1.12 µM [rising, full curve] |
| O=C(Nc1nnc(SCc2ccc(F)cc2)s1)c1ccccn1 | – | 35.5 µM [rising, single point] |
| O=C(O)CCN1c2ccccc2Sc2ccccc21 | 0.398 µM [rising, partial curve] | 0.398 µM [rising, partial curve, poor fit] |
| CCCOc1ccc(C(=O)C(CN2CCCC2)c2ccccc2)cc1 (stereo unspecified) | – | 35.5 µM [falling, single point] |
| CCCc1ccc(NC(=O)C2CCN(c3cnccn3)CC2)cc1 | – | 35.5 µM [rising, single point] |
| Cc1csc(SCC(=O)Nc2cc(C(C)(C)C)nn2-c2ccccc2)n1 | – | 10 µM [rising, partial curve, poor fit] |

Of the compounds above, these have two or more sulfur atoms.

| SMILES | AC50 [1] | AC50 [2] |
| --- | --- | --- |
| O=C(Cc1ccc(S(=O)(=O)N2CCCCC2)s1)Nc1ccc(F)cc1F | – | 14.1 µM [rising, single point] |
| O=C(Nc1nnc(SCc2ccc(F)cc2)s1)c1ccccn1 | – | 35.5 µM [rising, single point] |
| Cc1csc(SCC(=O)Nc2cc(C(C)(C)C)nn2-c2ccccc2)n1 | – | 10 µM [rising, partial curve, poor fit] |

Quoted from the listing:
AC50 [2] with CCCCc1n[nH]c2c1/C(=N/O)CC(c1ccccc1)C2 (stereo unspecified) reads 35.5 µM [falling, single point]
AC50 [2] with CCCc1ccc(NC(=O)C2CCN(c3cnccn3)CC2)cc1 reads 35.5 µM [rising, single point]

The list goes on:

| SMILES | AC50 [1] | AC50 [2] |
| --- | --- | --- |
| CCNC(=S)N1CCc2cc(OC)c(OC)cc2C1COc1ccc(OC)cc1 (stereo unspecified) | – | 35.5 µM [rising, single point] |
| CN(Cc1ccco1)c1nc(-c2ccoc2)nc2ccccc12 | 11.2 µM [falling, partial curve, poor fit] | 15.8 µM [falling, single point] |
| CCN1CCN(C(c2ccccc2)c2c(O)cc(C)n(CCOC)c2=O)CC1 (stereo unspecified) | 0.631 µM [rising, full curve, poor fit] | – |
| CSc1cccc(NC(=O)Cn2nnc(C(=O)NCCc3ccccc3)c2N)c1 | – | 0.708 µM [falling, partial curve] |
| CS(=O)(=O)N(CC(=O)N1CCN(c2ccccc2)CC1)c1ccc(Cl)c(C(F)(F)F)c1 | – | 31.6 µM [rising, single point] |
| COc1cc(/C=N/NC(N)=S)cc(Br)c1OCc1ccccc1F | 12.6 µM [rising, partial curve] | 31.6 µM [rising, single point] |
| CC1Cc2nc(SCC(=O)c3ccccc3)n(Cc3ccccc3)c(=O)c2S1 (stereo unspecified) | – | 35.5 µM [rising, single point] |
| Cc1noc(C)c1-c1ccc2ncnc(NCc3ccccc3)c2c1 | 0.891 µM [falling, full curve, poor fit] | 11.2 µM [rising, partial curve] |
| C=CCOc1ccc(/C=N/NC(=O)CN(c2cc(Cl)ccc2OC)S(=O)(=O)c2ccc(C)c([N+](=O)[O-])c2)cc1 | – | 6.31 µM [rising, single point] |
| Cc1cc(C)c2nc(NC(=O)[C@@H](NC(=O)c3cccc(S(=O)(=O)N4CCOCC4)c3)C(C)C)sc2c1 | 14.1 µM [rising, single point] | 20 µM [rising, single point] |
| CC1CC(N(C(=O)c2ccccc2Cl)c2ccccc2)c2ccccc2N1 (stereo unspecified) | 12.6 µM [rising, partial curve] | – |
| Cc1cc(C)cc(N2CCn3c2nc2c3c(=O)n(CCc3ccccc3)c(=O)n2C)c1 | 7.94 µM [falling, full curve, poor fit] | – |
| Cc1ccc(NCC(=O)N/N=C\c2ccc([N+](=O)[O-])o2)cc1 | 35.5 µM [falling, single point] | 35.5 µM [falling, single point] |
| CCCCSc1nc2ccc(Nc3nc(N4CCOCC4)nc(N4CCOCC4)n3)cc2s1 | 35.5 µM [falling, single point] | 28.2 µM [falling, partial curve] |
| Cc1ccc(/C=N/Nc2nc3ccccc3s2)o1 | – | 12.6 µM [rising, partial curve] |
| Cc1cccc(N2CCN(C(=O)c3ccoc3C)CC2)c1C | 2.82 µM [rising, partial curve, poor fit] | 7.08 µM [rising, partial curve, poor fit] |
| CN(C)C(=O)c1ccc(-c2cc(Nc3ccccc3)ncn2)cc1 | 17.8 µM [falling, partial curve] | – |
| COC(=O)c1ccc(OCCOCCOc2cccc3ccc(C)nc23)cc1 | 8.91 µM [rising, single point] | 11.2 µM [rising, single point] |
| O=C(O)c1ccc2c(c1)C(=O)N(NC(=O)c1ccc(O)cc1)C2=O | 0.0224 µM [falling, full curve] | 0.0794 µM [falling, full curve, poor fit] |
| CCN(Cc1ccccc1)S(=O)(=O)c1cc(C(=O)NC(C)C2CC3CCC2C3)ccc1OC (stereo unspecified) | – | 15.8 µM [rising, single point] |
| Oc1cccc(Nc2ncnc3sc4c(c23)CCCC4)c1 | 10 µM [falling, partial curve] | – |
| CC[C@]1([C@H]2O[C@@H]([C@@H]3O[C@](O)(CO)[C@@H](C)C[C@H]3C)C[C@H]2C)CC[C@@H]([C@]2(C)CC[C@@]3(C[C@@H](O)[C@@H](C)[C@@H]([C@H](C)[C@H](OC)[C@H](C)C(=O)O)O3)O2)O1 | 0.447 µM [falling, full curve, poor fit] | 0.447 µM [falling, full curve, poor fit] |
| Cc1oc(-c2ccc(Cl)cc2)nc1CSCC(=O)NCCCN1CCOCC1 | 12.6 µM [rising, partial curve] | 12.6 µM [rising, partial curve] |
| CCc1c(C)nc2ncnn2c1N1CCC(C(=O)Nc2ccccc2)CC1 | 31.6 µM [rising, single point] | 35.5 µM [rising, single point] |
| CCOC(=O)c1ccc(CC(=O)c2ccc(O)cc2O)o1 | – | 35.5 µM [rising, single point] |
| CCc1ccccc1NC(=O)N1CCC(NC(=O)C(Cc2ccccc2)NC(C)=O)CC1 (stereo unspecified) | 11.2 µM [rising, partial curve] | – |
| O=C(CCc1ccc(O)cc1)c1c(O)cc(O)cc1O | 25.1 µM [falling, partial curve, poor fit] | 0.00501 µM [falling, full curve, poor fit] |

Reference: PubChem BioAssay AID1487 (National Center for Advancing Translational Sciences (NCATS), 2009)
